Reference: the supplement of paper PMC10470496
Structures can show the parent of a compound that is named as a salt. This is one part of the list. Repeats are few or missing, and single values can be far off.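 The strains were three CDC resistance-bank clinical C. auris isolates from clades III, IV and I, cultured in RPMI-1640 at 35°C. Growth was background-corrected OD600 versus vehicle-only wells on the same plate. A hit needed >50% inhibition in two or more strains plus a plate-corrected B-score exceeding 0.1.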

Tested on: C. auris AR-386
Assay: growth relative to vehicle control (OD600 ratio) (fraction); higher = less inhibition
Settings: 1 µM; 24 h

Structure (SMILES) | growth
CC(=O)OC(C)C[N+](C)(C)C (centres undefined) [Methacholine chloride] | 1.03
CCCC1O[C@@H]2C[C@H]3[C@@H]4CCC5=CC(=O)C=C[C@]5(C)[C@H]4[C@@H](O)C[C@]3(C)[C@]2(C(=O)CO)O1 (some centres undefined) [Budesonide] | 0.84
COCCCOc1ccnc(C[S+]([O-])c2nc3ccccc3[nH]2)c1C (centres undefined) [Rebeprazole sodium] | 0.76
Cc1nc2c([nH]1)-c1ccccc1N(C(=O)c1ccc(NC(=O)c3ccccc3-c3ccccc3)cc1)CC2 [Conivaptan HCl] | 0.91
O=C1CN(/N=C/c2ccc([N+](=O)[O-])o2)C(=O)N1 [Nitrofurantoin] | 0.53
Cc1noc(NS(=O)(=O)c2ccc(N)cc2)c1C [Sulfisoxazole] | 1.18
C[C@@H]1C[C@H]2[C@@H]3CCC4=CC(=O)C=C[C@]4(C)[C@@]3(F)[C@@H](O)C[C@]2(C)[C@@]1(O)C(=O)CO [Dexamethasone (DHAP)] | 1.09
COc1cc2nc(N3CCN(C(=O)C4CCCO4)CC3)nc(N)c2cc1OC (centres undefined) [Terazosin HCl] | 0.55
COCCCN1CCC(NC(=O)c2cc(Cl)c(N)c3c2OCC3)CC1 [Prucalopride] | 0.99
COc1cccc2c1C(=O)c1c(O)c3c(c(O)c1C2=O)C[C@@](O)(C(C)=O)C[C@@H]3O[C@H]1C[C@H](N)[C@H](O)[C@H](C)O1 [Daunorubicin HCl] | 0.75
CC(=O)OCC[N+](C)(C)C [Acetylcholine Chloride] | 0.88
NC(=O)N1CCC(CC(=O)N2CCC([C@H]3c4ncc(Br)cc4CCc4cc(Cl)cc(Br)c43)CC2)CC1 [Lonafarnib] | 0.95
COc1ncc(-c2ccc3nccc(-c4ccnnc4)c3c2)cc1NS(=O)(=O)c1ccc(F)cc1F | 0.98
OCc1cc(C(O)CNCCCCCCOCCCCc2ccccc2)ccc1O (centres undefined) [Salmeterol Xinafoate] | 0.77
Cc1ncc(C[n+]2csc(CCO)c2C)c(N)n1 [Thiamine HCl (Vitamin B1)] | 0.56
Nc1cccc2c1CN(C1CCC(=O)NC1=O)C2=O (centres undefined) [Lenalidomide (CC-5013)] | 0.6
C#C[C@]1(OC(C)=O)CC[C@H]2[C@@H]3CCC4=C[C@@H](OC(C)=O)CC[C@@H]4[C@H]3CC[C@@]21C [Ethynodiol diacetate] | 0.85
Cc1ccc(NC(=O)c2ccc(CN3CC[C@H](N(C)C)C3)c(C(F)(F)F)c2)cc1Nc1nccc(-c2cncnc2)n1 [Bafetinib (INNO-406)] | 1.42
CN(C)C/C=C/C(=O)Nc1cc2c(Nc3ccc(F)c(Cl)c3)ncnc2cc1O[C@H]1CCOC1 [Afatinib (BIBW2992)] | 0.9
CN1C(C(=O)Nc2ccccn2)=C(O)c2ccccc2S1(=O)=O [Piroxicam] | 1.05

Random excerpt: 2 records from the list
Structure (SMILES) | growth
COc1cccc2c1C(=O)c1c(O)c3c(c(O)c1C2=O)C[C@@](O)(C(C)=O)C[C@@H]3O[C@H]1C[C@H](N)[C@H](O)[C@H](C)O1 [Daunorubicin HCl] | 0.75
Nc1cccc2c1CN(C1CCC(=O)NC1=O)C2=O (centres undefined) [Lenalidomide (CC-5013)] | 0.6

Next part

Structure (SMILES) | growth
Cc1ccnc2c1NC(=O)c1cccnc1N2C1CC1 [Nevirapine] | 1.36
C[N+]1(C)[C@@H]2C[C@@H](OC(=O)C(O)(c3cccs3)c3cccs3)C[C@H]1[C@@H]1O[C@@H]12 [Tiotropium Bromide hydrate] | 0.87
CCCN(CCC)CCc1cccc2c1CC(=O)N2 [Ropinirole HCl] | 0.65
Cc1ncc(CO)c(CO)c1O [Pyridoxine HCl] | 1.28
COc1cc(/C=C/C(=O)N2CCN(CC(=O)N3CCCC3)CC2)cc(OC)c1OC [Cinepazide maleate] | 0.91
O=c1[nH]cnc2c1ncn2[C@H]1CC[C@@H](CO)O1 [Didanosine] | 1.24
Clc1ccc2nsnc2c1NC1=NCCN1 [Tizanidine HCl] | 0.54
CC(=O)Oc1cc2c(s1)CCN(C(C(=O)C1CC1)c1ccccc1F)C2 (centres undefined) [Prasugrel] | 0.63
CN1CCN(c2nc(C3=C(c4c[nH]c5ccccc45)C(=O)NC3=O)c3ccccc3n2)CC1 [Sotrastaurin] | 0.7
COc1cc2ncnc(Nc3ccc(F)c(Cl)c3)c2cc1OCCCN1CCOCC1 [Gefitinib (ZD1839)] | 0.61
CCCCOc1cc(C(=O)OCCN(CC)CC)ccc1N [Oxybuprocaine HCl] | 1.46
C[C@@H](c1nc(-c2ccc(C#N)cc2)cs1)[C@](O)(Cn1cncn1)c1cc(F)ccc1F [Isavuconazole] | 0.21
CCCC(=O)Nc1ccc(OCC(O)CNC(C)C)c(C(C)=O)c1 (centres undefined) [Acebutolol HCl] | 0.57
CCOc1cc2ncc(C#N)c(Nc3ccc(F)c(Cl)c3)c2cc1NC(=O)/C=C/CN(C)C [Pelitinib (EKB-569)] | 1.19
NC(=O)OCC(COC(N)=O)c1ccccc1 [Felbamate] | 1.33
Cc1c(-c2ccc(O)cc2)n(Cc2ccc(OCCN3CCCCCC3)cc2)c2ccc(O)cc12 [Bazedoxifene Acetate] | 0.95
CCn1cc(C(=O)O)c(=O)c2cc(F)c(N3CCNCC3)nc21 [Enoxacin] | 0.76
CC(C)(O/N=C(\C(=O)N[C@@H]1C(=O)N2C(C(=O)[O-])=C(C[n+]3ccccc3)CS[C@H]12)c1csc(N)n1)C(=O)O [Ceftazidime Pentahydrate] | 1.25
Cc1ccc(S(=O)(=O)NC(=O)NN2CC3CCCC3C2)cc1 (centres undefined) [Gliclazide] | 1.11
